The source of these data is PMC10733312.

The chains behind the UniProt entries cited, without tags or fusion partners.
UniProt P19474: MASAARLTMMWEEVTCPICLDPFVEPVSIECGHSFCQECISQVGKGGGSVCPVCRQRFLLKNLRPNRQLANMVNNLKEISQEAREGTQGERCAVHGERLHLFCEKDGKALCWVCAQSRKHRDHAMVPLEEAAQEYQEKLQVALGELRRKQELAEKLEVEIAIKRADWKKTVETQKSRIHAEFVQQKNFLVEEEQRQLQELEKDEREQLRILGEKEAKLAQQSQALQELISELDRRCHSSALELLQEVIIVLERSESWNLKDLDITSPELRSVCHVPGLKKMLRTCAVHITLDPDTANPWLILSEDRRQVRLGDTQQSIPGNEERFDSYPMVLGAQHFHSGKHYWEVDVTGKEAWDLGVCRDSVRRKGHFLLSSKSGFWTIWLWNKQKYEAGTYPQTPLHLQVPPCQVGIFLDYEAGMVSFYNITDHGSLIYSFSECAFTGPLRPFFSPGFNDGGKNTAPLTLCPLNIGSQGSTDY

No constants are given. Whether binding was seen depends on the method and setting. In cells and extracts the contact can be indirect. Here binding means that the protein was enriched with, or labelled near, the bait; the list need not be complete. Sequences can lack the tags named with a protein.

The test concerns the target T1, Flag-Sohlh2 (UniProt Q9NX45).
T1 sequence: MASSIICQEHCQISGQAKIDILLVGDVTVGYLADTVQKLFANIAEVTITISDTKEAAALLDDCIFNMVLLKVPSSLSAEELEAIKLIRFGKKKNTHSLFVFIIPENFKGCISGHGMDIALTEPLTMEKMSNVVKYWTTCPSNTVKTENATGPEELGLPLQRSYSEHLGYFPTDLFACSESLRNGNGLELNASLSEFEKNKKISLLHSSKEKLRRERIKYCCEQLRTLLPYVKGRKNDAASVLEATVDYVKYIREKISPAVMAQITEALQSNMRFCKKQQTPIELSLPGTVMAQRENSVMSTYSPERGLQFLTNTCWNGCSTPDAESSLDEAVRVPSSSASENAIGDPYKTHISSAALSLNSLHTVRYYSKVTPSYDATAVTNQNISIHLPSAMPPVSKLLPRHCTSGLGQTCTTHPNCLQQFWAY
In words: affinity purification with mass spectrometry; Coomassie-stained SDS-PAGE gel lanes sliced into bands, binding proteins measured by mass spectrometry (Maxis II); bait and cells not stated for this experiment.

With “E3 ubiquitin ligase TRIM21 (from UniProt P19474 1-475) (enzyme)”, the binding entry is reported as “binds”.
